These are yes or no findings as the source states them, for the method shown. In cells and extracts the contact can be indirect. Some results given as binding are weak or reduced against the parent protein; the word gives no strength. Where a sequence is shown, tags or fusion partners need not be part of it.
Molecular target: T1, HisFtsI(PBP3) (E. coli) (UniProt P0AD68)
T1 sequence: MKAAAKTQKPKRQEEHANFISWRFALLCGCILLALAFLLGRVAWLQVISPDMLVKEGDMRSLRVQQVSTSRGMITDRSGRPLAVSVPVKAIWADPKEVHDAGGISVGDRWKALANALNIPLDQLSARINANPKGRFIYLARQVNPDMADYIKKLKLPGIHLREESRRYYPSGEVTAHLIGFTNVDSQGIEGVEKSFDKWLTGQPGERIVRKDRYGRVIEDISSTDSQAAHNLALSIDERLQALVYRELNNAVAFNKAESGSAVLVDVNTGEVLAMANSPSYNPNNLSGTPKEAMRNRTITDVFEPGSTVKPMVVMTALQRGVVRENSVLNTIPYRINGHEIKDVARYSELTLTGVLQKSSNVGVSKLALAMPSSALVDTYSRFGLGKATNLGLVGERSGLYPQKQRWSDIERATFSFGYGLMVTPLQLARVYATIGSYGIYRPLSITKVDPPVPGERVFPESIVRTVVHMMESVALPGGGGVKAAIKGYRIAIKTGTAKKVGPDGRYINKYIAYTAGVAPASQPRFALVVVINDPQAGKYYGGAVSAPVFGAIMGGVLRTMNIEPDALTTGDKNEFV
Experiment: pull-down; His-tagged protein co-expressed with the untagged partner in E. coli; membranes solubilised in DDM; His-tagged protein held on a HisTrap column (50 mM Tris-HCl pH 7.5, 300 mM NaCl, 10% glycerol, 1 mM DDM, 50 mM imidazole), eluted with an imidazole gradient; SDS-PAGE with Coomassie, Bocillin FL fluorescence or anti-HA blot

binding: binds
B1: FtsW, untagged (enzyme, UniProt P0ABG4 1-414)
chain: MRLSLPRLKMPRLPGFSILVWISTALKGWVMGSREKDTDSLIMYDRTLLWLTFGLAAIGFIMVTSASMPIGQRLTNDPFFFAKRDGVYLILAFILAIITLRLPMEFWQRYSATMLLGSIILLMIVLVVGSSVKGASRWIDLGLLRIQPAELTKLSLFCYIANYLVRKGDEVRNNLRGFLKPMGVILVLAVLLLAQPDLGTVVVLFVTTLAMLFLAGAKLWQFIAIIGMGISAVVLLILAEPYRIRRVTAFWNPWEDPFGSGYQLTQSLMAFGRGELWGQGLGNSVQKLEYLPEAHTDFIFAIIGEELGYVGVVLALLMVFFVAFRAMSIGRKALEIDHRFSGFLACSIGIWFSFQALVNVGAAAGMLPTKGLTLPLISYGGSSLLIMSTAIMMLLRIDYETRLEKAQAFVRGSR
